Experimental data taken from the supplement of paper PMC10331698.
± gives the standard deviation of the averaged measurements. Most entries show no effect beyond the scatter of the controls.

Legend:
Assay in all cases: level (log10 ratio to DMSO vehicle control); higher = higher biomarker level / cell amount than vehicle control
[1] = compound: OCC(F)(F)C(F)(F)C(F)(F)C(F)(F)C(F)(F)C(F)(F)F [6:1 Fluorotelomer alcohol] (in DMSO); conditions: 2200 nM
Procedure: (§1)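 BioMAP Diversity Plus panel of 12 human primary cell co-culture systems (3C, 4H, LPS, SAg, BT, BF4T, BE3C, CASM3C, HDF3CGF, KF3CT, MyoF, Mphg). Compounds were added 1 h before stimulation and left for 24 h (MyoF 48 h; BT 72 h for soluble read-outs or 6 d for IgG). Biomarkers were read by ELISA, cytotoxicity by SRB, PBMC viability and proliferation by Alamar Blue. Each well value was divided by the mean of 8 DMSO control wells on the same plate and log10 transformed; duplicate blinded samples were tested at 4 concentrations.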

[2] = compound: O=C(O)C(F)(OC(F)(F)C(F)(F)C(F)(F)F)C(F)(F)F [Ammonium perfluoro-2-methyl-3-oxahexanoate] (in Water)
Procedure: as §1

[3] = compound: O=C(O)CCC(F)(F)C(F)(F)C(F)(F)F [3:3 Fluorotelomer carboxylic acid] (in DMSO); conditions: 2200 nM
Procedure: as §1

[4] = compound: OCCCC(F)(F)C(F)(F)C(F)(F)C(F)(F)C(F)(F)C(F)(F)C(F)(F)C(F)(F)F [3-(Perfluorooctyl)propanol] (in DMSO); conditions: 2200 nM
Procedure: as §1

[5] = compound: O=C(O)C(F)(F)C(F)(F)C(F)(F)OC(F)(C(F)(F)F)C(F)(F)F [Perfluoro-4-isopropoxybutanoic acid] (in DMSO); conditions: 2200 nM
Procedure: as §1

[6] = compound: FC(F)(F)C(F)(F)C(F)(F)C(F)(F)CCI [1H,1H,2H,2H-Perfluorohexyl iodide] (in DMSO); conditions: 2200 nM
Procedure: as §1

Hexafluoroglutaric acid = compound: O=C(O)C(F)(F)C(F)(F)C(F)(F)C(=O)O [Hexafluoroglutaric acid] (in DMSO)
Procedure: as §1

[7] = compound: O=C(O)C(F)(OC(F)(F)C(F)(OC(F)(F)C(F)(OC(F)(F)C(F)(F)C(F)(F)F)C(F)(F)F)C(F)(F)F)C(F)(F)F [Perfluoro-(2,5,8-trimethyl-3,6,9-trioxadodecanoic)acid] (in DMSO); conditions: 370 nM
Procedure: as §1

[8] = compound: FC(F)(F)C(F)(F)CNCC(F)(F)C(F)(F)F [Bis(1H,1H-perfluoropropyl)amine] (in DMSO); conditions: 2200 nM
Procedure: as §1

[9] = compound: OCC(F)(F)C(F)(F)C(F)(F)C(F)F [1H,1H,5H-Perfluoropentanol] (in DMSO); conditions: 2200 nM
Procedure: as §1

[10] = compound: O=S(=O)(O)C(F)(F)C(F)(F)C(F)(F)C(F)(F)F [Perfluorobutanesulfonic acid] (in DMSO)
Procedure: as §1

[11] = compound: OCC(F)(F)OC(F)(F)C(F)(F)OC(F)(F)CO [1H,1H,8H,8H-Perfluoro-3,6-dioxaoctane-1,8-diol] (in DMSO); conditions: 2200 nM
Procedure: as §1

Perfluorohexanoic acid = compound: O=C(O)C(F)(F)C(F)(F)C(F)(F)C(F)(F)C(F)(F)F [Perfluorohexanoic acid] (in DMSO)
Procedure: as §1

[12] = compound: C=C(C)C(=O)OCCC(F)(F)C(F)(F)C(F)(F)C(F)(F)C(F)(F)C(F)(F)F [6:2 Fluorotelomer methacrylate] (in DMSO); conditions: 2200 nM
Procedure: as §1

[13] = compound: CNS(=O)(=O)C(F)(F)C(F)(F)C(F)(F)C(F)(F)C(F)(F)C(F)(F)C(F)(F)C(F)(F)F [N-Methylperfluorooctanesulfonamide] (in DMSO); conditions: 2200 nM
Procedure: as §1

[14] = compound: OCC(F)(F)C(F)(F)C(F)(F)C(F)(F)C(F)(F)C(F)(F)CO [1H,1H,8H,8H-Perfluorooctane-1,8-diol] (in DMSO); conditions: 2200 nM
Procedure: as §1

[15] = compound: FC(F)(F)COC(OCC(F)(F)F)OCC(F)(F)F [tris(Trifluoroethoxy)methane] (in DMSO); conditions: 2200 nM
Procedure: as §1

| Test System | level (log10) [1] | level (log10) ([2]; 2200 nM) | level (log10) ([2]; 6700 nM) | level (log10) ([2]; 20000 nM) | level (log10) ([2]; 60000 nM) | level (log10) [3] | level (log10) [4] | level (log10) [5] | level (log10) [6] | level (log10) (Hexafluoroglutaric acid; 2200 nM) | level (log10) (Hexafluoroglutaric acid; 6700 nM) | level (log10) (Hexafluoroglutaric acid; 20000 nM) | level (log10) (Hexafluoroglutaric acid; 60000 nM) | level (log10) [7] | level (log10) [8] | level (log10) [9] | level (log10) ([10]; 2200 nM) | level (log10) ([10]; 6700 nM) | level (log10) ([10]; 20000 nM) | level (log10) ([10]; 60000 nM) | level (log10) [11] | level (log10) (Perfluorohexanoic acid; 2200 nM) | level (log10) (Perfluorohexanoic acid; 6700 nM) | level (log10) (Perfluorohexanoic acid; 20000 nM) | level (log10) (Perfluorohexanoic acid; 60000 nM) | level (log10) [12] | level (log10) [13] | level (log10) [14] | level (log10) [15] |
| --- | --- | --- | --- | --- | --- | --- | --- | --- | --- | --- | --- | --- | --- | --- | --- | --- | --- | --- | --- | --- | --- | --- | --- | --- | --- | --- | --- | --- | --- |
| BF4T:CD54/ICAM-1 | 0 ± 0.033 | -0.006 ± 0.016 | -0.0155 ± 0.012 | -0.0265 ± 0.016 | -0.0075 ± 0.0021 | 0.0015 ± 0.011 | -0.014 ± 0.0042 | 0.0065 ± 0.016 | 0.006 ± 0.0099 | -0.005 ± 0.016 | 0.0025 ± 0.005 | -0.01 ± 0.0057 | 0.006 ± 0.011 | -0.0025 ± 0.022 | 0.0085 ± 0.011 | 0.003 ± 0.0042 | 0 ± 0.0099 | -0.027 ± 0.0085 | -0.002 ± 0.0014 | -0.0115 ± 0.019 | 0.0105 ± 0.0035 | -0.003 ± 0.0099 | -0.011 ± 0.0014 | -0.0135 ± 0.0064 | -0.0005 ± 0.0021 | 0.005 ± 0.011 | 0.0015 ± 0.021 | -0.0045 ± 0.0064 | 0.0015 ± 0.0021 |
| BF4T:CD90 | 0.0145 ± 0.016 | 0.0075 ± 0.0078 | -0.0065 ± 0.011 | -0.015 ± 0.011 | -0.007 ± 0.024 | 0.011 ± 0.0028 | -0.012 ± 0.041 | 0.001 ± 0.0085 | -0.0035 ± 0.032 | 0.013 ± 0.0085 | 0.0025 ± 0.0092 | 0.009 ± 0.0042 | 0.0175 ± 0.005 | 0.0005 ± 0.0021 | -0.001 ± 0.025 | -0.016 ± 0.017 | -0.0025 ± 0.0092 | -0.007 ± 0.0042 | -0.008 ± 0.021 | -0.015 ± 0.011 | 0.0015 ± 0.015 | 0.0015 ± 0.0092 | -0.0045 ± 0.011 | -0.0005 ± 0.011 | -0.007 ± 0.011 | -0.007 ± 0.0028 | 0.007 ± 0.018 | -0.019 ± 0.033 | 0.008 ± 0.017 |
| BF4T:CD106/VCAM-1 | -0.066 ± 0.064 | -0.0555 ± 0.015 | -0.0735 ± 0.039 | -0.018 ± 0.0085 | -0.008 ± 0.0014 | 0.0245 ± 0.053 | -0.0015 ± 0.057 | 0.019 ± 0.096 | 0.0265 ± 0.039 | 0.022 ± 0.033 | -0.0055 ± 0.023 | -0.0095 ± 0.0078 | -0.002 ± 0.017 | -0.007 ± 0.041 | 0.0175 ± 0.064 | 0.0065 ± 0.044 | 0.042 ± 0.0085 | -0.0175 ± 0.0078 | -0.0325 ± 0.046 | -0.021 ± 0.0028 | 0.0115 ± 0.071 | -0.014 ± 0.031 | 0.0025 ± 0.042 | -0.0145 ± 0.0078 | -0.017 ± 0.017 | -0.004 ± 0.014 | 0.0205 ± 0.018 | -0.002 ± 0.0057 | 0.0265 ± 0.067 |
| BF4T:CXCL8/IL-8 | 0.033 ± 0.051 | -0.005 ± 0.057 | -0.0135 ± 0.036 | 0.0295 ± 0.028 | 0.0255 ± 0.03 | -0.0075 ± 0.005 | 0.019 ± 0.035 | 0.0045 ± 0.049 | 0.029 ± 0.045 | 0.042 ± 0.048 | 0.0125 ± 0.039 | 0.009 ± 0.041 | 0.0345 ± 0.0035 | 0.0475 ± 0.056 | -0.011 ± 0.051 | 0.0505 ± 0.037 | -0.0245 ± 0.04 | -0.0205 ± 0.0064 | 0.006 ± 0.0057 | 0.0095 ± 0.013 | 0.0285 ± 0.043 | 0.035 ± 0.0014 | -0.0055 ± 0.025 | 0.0155 ± 0.0078 | 0.0415 ± 0.042 | 0.0195 ± 0.11 | -0.0105 ± 0.044 | 0.013 ± 0.018 | 0.015 ± 0.057 |
